Assay results as given in KR20160093503A.
These are yes or no findings as the source states them, for the method shown. Some results given as binding are weak or reduced against the parent protein; the word gives no strength.

Legend:
[1] = target: T1, CRS (Cysteinyl-tRNA synthetase), purified recombinant antigen (human) (UniProt P49589); experiment: Luminex multiplex bead assay, CRS coupled to beads, anti-HA-biotin / SA-PE detection
T1 sequence (looked up): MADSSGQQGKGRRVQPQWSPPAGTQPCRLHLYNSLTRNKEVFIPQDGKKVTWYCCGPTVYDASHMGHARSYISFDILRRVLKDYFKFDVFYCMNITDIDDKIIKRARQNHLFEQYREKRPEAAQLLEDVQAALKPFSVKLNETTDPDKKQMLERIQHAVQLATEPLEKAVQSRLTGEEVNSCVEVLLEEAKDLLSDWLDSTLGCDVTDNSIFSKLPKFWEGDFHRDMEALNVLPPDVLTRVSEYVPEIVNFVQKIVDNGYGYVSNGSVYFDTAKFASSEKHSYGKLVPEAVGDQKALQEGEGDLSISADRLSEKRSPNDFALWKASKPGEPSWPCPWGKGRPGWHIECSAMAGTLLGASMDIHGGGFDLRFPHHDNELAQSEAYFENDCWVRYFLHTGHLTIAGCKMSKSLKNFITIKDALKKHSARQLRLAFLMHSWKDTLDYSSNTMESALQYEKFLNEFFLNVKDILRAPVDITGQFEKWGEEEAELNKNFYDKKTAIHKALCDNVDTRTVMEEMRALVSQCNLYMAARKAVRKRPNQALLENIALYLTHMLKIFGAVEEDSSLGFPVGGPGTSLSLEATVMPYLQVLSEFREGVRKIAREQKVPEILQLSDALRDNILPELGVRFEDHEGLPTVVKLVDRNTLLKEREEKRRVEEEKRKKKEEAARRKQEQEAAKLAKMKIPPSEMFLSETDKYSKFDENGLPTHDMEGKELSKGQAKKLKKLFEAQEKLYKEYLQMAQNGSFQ

[2] = target: T1, CRS (Cysteinyl-tRNA synthetase), purified recombinant antigen (human); experiment: sandwich ELISA, scFv coated as capture antibody, rabbit polyclonal anti-CRS as detection antibody, anti-rabbit IgG-HRP
[3] = target: T2, CRS endogenously expressed in human cells (HeLa cell lysate) (human) (UniProt P49589); experiment: western blot of HeLa cell lysate, scFv from periplasmic extract, anti-HA-HRP detection
T2 sequence (looked up): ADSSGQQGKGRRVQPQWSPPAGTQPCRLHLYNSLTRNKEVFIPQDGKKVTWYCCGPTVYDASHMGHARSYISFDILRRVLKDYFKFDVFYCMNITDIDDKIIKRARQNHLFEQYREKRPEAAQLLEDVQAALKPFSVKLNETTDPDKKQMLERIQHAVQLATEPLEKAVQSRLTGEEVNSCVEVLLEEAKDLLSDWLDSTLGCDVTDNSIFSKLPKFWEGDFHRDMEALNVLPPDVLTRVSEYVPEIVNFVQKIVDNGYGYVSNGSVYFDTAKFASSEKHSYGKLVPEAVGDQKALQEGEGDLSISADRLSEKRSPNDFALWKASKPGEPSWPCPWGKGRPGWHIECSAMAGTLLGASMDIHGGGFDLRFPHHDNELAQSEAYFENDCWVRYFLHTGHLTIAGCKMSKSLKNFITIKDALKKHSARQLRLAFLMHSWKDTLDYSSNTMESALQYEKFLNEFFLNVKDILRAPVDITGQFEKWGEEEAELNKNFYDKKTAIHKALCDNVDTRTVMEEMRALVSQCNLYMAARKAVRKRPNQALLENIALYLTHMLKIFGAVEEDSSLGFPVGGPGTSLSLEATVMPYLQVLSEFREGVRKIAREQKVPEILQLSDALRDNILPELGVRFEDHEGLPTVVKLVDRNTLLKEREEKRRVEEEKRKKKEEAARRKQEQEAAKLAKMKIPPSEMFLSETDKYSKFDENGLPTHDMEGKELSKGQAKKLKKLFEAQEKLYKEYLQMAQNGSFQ

Measured: binding

B1: anti-CRS scFv Biocon-K1 (scFv)
scFv: EVQLLESGGGLVQPVGSLRLSCAASGFTFSNYAMSWVRQAPGKGLEWVSWIYSKGRSTYYGDSAKGRFTISRDNSKNTLYLQMNSLRAEDTAVYYCAKRDNAFDYWGQGTLVTVSSGGGGSGGGGSGGGGSQSVLTQPPSASGTPGQRVTISCSGSSSNIGNNYVYWYQQLPGTAPKLLIYADSQRPSGVPDRFSGSKSGTSASLAISGLRSEDEADYYCGAWDSSLNGYVFGGGTKLTVL
binds: all assays above
